Measured values taken from the Kinase Knowledgebase extract (Sharma et al. 2016).

Target: CDK2 (UniProt P24941)
Test: Enzyme Assay

CC(C)n1cnc2c(NCc3cccc(I)c3)nc(N3CCC[C@@H]3CO)nc21
IC50: 650 nM
